According to PubChem BioAssay AID330 (DTP/NCI, 2004):
The list is a part of this screen's results and no random one: it gathers tests that were run many times, whatever their T/C, doses with no T/C, and many T/C values between a quarter and a half above the control. Further doses and runs are listed elsewhere. T/C is the treated group as % of the vehicle group. Some doses have a count of surviving animals in place of a T/C: the source files T/C as zero there, which appears to mark a toxic dose or a test without result, not a measured value. Some survivor counts are full or nearly so, which does not show that the dose was tolerated: survival well below the control is almost never listed, so the zero probably covers shortened survival too. Counts of survivors are from the toxicity check (mostly the fifth day) where no day follows; animals may have died later. Schedules are NCI's codes, taken here to give the interval after Q, in days (D) or hours (H), and the number of doses after X. For survival time, this PubChem deposit counts one and a half times the control or more as active, and values a quarter to a half above the control carry no call in these data; other NCI protocols may use other cut-offs. Some T/C values carry the count of animals alive at the toxicity check (mostly the fifth day); where none is given, no animal had died by that day.

Tested on: P388 leukemia ip, CD2F1 mice, survival T/C
Assay: NCI In Vivo Anticancer Drug Screen. Data for tumor model P388 Leukemia (intraperitoneal) in CD2F1 (CDF1) mice
Conditions: T/C endpoint: median survival time, higher T/C = longer survival
[1] = dose: 50.0 mg/kg/injection, schedule: Q01DX005 (ip), vehicle: saline with Tween-80
[2] = dose: 100.0 mg/kg/injection, schedule: Q01DX005 (ip), vehicle: saline with Tween-80
[3] = dose: 240.0 mg/kg/injection, schedule: Q01DX005 (ip), vehicle: saline with Tween-80
[4] = dose: 200.0 mg/kg/injection, schedule: Q01DX009 (ip), vehicle: saline
[5] = dose: 50.0 mg/kg/injection, schedule: Q01DX009 (ip), vehicle: saline
[6] = dose: 100.0 mg/kg/injection, schedule: Q01DX009 (ip), vehicle: saline
[7] = dose: 100.0 mg/kg/injection, schedule: Q01DX009 (ip), vehicle: saline with Tween-80
[8] = dose: 200.0 mg/kg/injection, schedule: Q01DX009 (ip), vehicle: saline with Tween-80
[9] = dose: 200.0 mg/kg/injection, schedule: Q01DX009 (ip), vehicle: Klucel (hydroxypropylcellulose) (HPC)
[10] = dose: 50.0 mg/kg/injection, schedule: Q01DX009 (ip), vehicle: Klucel (hydroxypropylcellulose) (HPC)

## CC(=O)O[C@H]1C(=O)[C@]2(C)[C@@H](OC(C)=O)CC3OC[C@@]3(OC(C)=O)[C@H]2[C@H](OC(=O)c2ccccc2)[C@]2(O)C[C@H](OC(=O)[C@H](O)[C@@H](NC(=O)c3ccccc3)c3ccccc3)C(C)=C1C2(C)C (stereo partly drawn)
dose: 10.0 mg/kg/injection, schedule: Q01DX005 (ip), vehicle: DMSO
  T/C: 125 % of control
dose: 20.0 mg/kg/injection, schedule: Q01DX005 (ip), vehicle: DMSO
  T/C: 139 % of control

## O=C1C(=C(Cl)Cl)C(=O)c2ccccc21
dose: 25.0 mg/kg/injection, schedule: Q01DX005 (ip), vehicle: Klucel (hydroxypropylcellulose) (HPC)
  survivor count: 5 of 6
dose: 100.0 mg/kg/injection, schedule: Q01DX005 (ip), vehicle: Klucel (hydroxypropylcellulose) (HPC)
  survivor count: 1 of 6
dose: 200.0 mg/kg/injection, schedule: Q01DX005 (ip), vehicle: Klucel (hydroxypropylcellulose) (HPC)
  survivor count: 0 of 6

## CCOC(=O)C(=CNc1cccc2c(O)cccc12)C(=O)OCC
[1]
  survivor count: 5 of 5
[2]
  survivor count: 5 of 5

## NC(=S)c1ccccc1[N+](=O)[O-]
dose: 400.0 mg/kg/injection, schedule: Q01DX001 (ip), vehicle: saline
  survivor count: 0 of 6

## O=C(O)/C=N/NP(=O)(Oc1ccccc1)Oc1ccccc1
dose: 25.0 mg/kg/injection, schedule: Q01DX009 (ip), vehicle: distilled water + Tween-80
  survivor count: 5 of 6

## CC1(C)OC(C(F)(F)F)(C(F)(F)F)c2cc(C(C)(C)C)cc(C(O)(C(F)(F)F)C(F)(F)F)c2S1
[3]
  survivor count: 3 of 6

## CC(C)CCNc1ncnc2c1cnn2C
dose: 100.0 mg/kg/injection, schedule: Q04DX003 (ip), vehicle: saline
  survivor count: 4 of 6
dose: 200.0 mg/kg/injection, schedule: Q04DX003 (ip), vehicle: saline with Tween-80
  survivor count: 0 of 6
dose: 400.0 mg/kg/injection, schedule: Q04DX003 (ip), vehicle: saline with Tween-80
  survivor count: 0 of 6

## COC(=O)C1CC(O)CC(C(=O)OC)O1 (stereo not drawn)
dose: 240.0 mg/kg/injection, schedule: Q01DX005 (ip), vehicle: saline
  survivor count: 0 of 6

## CCCCCCCC/C=C\CCCCCCCC[N+]1([O-])CCOCC1
[4]
  survivor count: 6 of 6

## C[N+](C)(C)Cc1c[nH]c2ccccc12
[5]
  survivor count: 2 of 6
[6]
  survivor count: 0 of 6
[4]
  survivor count: 1 of 6

## N=[N+]=NC1C(O)C(CO)OC1n1cnc2c(N)ncnc21 (stereo not drawn)
dose: 20.0 mg/kg/injection, schedule: Q03HX016 (ip), vehicle: Klucel (hydroxypropylcellulose) (HPC)
  T/C: 140 % of control
dose: 40.0 mg/kg/injection, schedule: Q03HX016 (ip), vehicle: Klucel (hydroxypropylcellulose) (HPC)
  T/C: 141 % of control

## CCC(=N\NC(=S)NCCN(CC)CC)/C(C)=N/NC(=S)NCCN(CC)CC
dose: 50.0 mg/kg/injection, schedule: Q01DX009 (ip), vehicle: saline with Tween-80
  survivor count: 0 of 6
[7]
  survivor count: 0 of 6
[8]
  survivor count: 0 of 6

## Cc1[nH]ccc(=O)c1O
[5]
  T/C: 129 % of control
dose: 64.0 mg/kg/injection, schedule: Q01DX009 (ip), vehicle: saline with Tween-80
  T/C: 133 % of control
[6]
  T/C: 125 % of control
dose: 128.0 mg/kg/injection, schedule: Q01DX009 (ip), vehicle: saline with Tween-80
  T/C: 135 % of control
[4]
  T/C: 133 % of control
dose: 256.0 mg/kg/injection, schedule: Q01DX009 (ip), vehicle: saline with Tween-80
  T/C: 132 % of control
dose: 400.0 mg/kg/injection, schedule: Q01DX009 (ip), vehicle: saline
  T/C: 144 % of control [5 of 6 alive]

## CCc1nc(N)nc(N)c1-c1ccc(N2CC[N+](C)(C)CC2)cc1
dose: 1.88 mg/kg/injection, schedule: Q01DX005 (ip), vehicle: saline with Tween-80
  survivor count: 0 of 6
dose: 3.75 mg/kg/injection, schedule: Q01DX005 (ip), vehicle: saline with Tween-80
  survivor count: 0 of 6
dose: 7.5 mg/kg/injection, schedule: Q01DX005 (ip), vehicle: saline with Tween-80
  survivor count: 0 of 6
dose: 15.0 mg/kg/injection, schedule: Q01DX005 (ip), vehicle: saline with Tween-80
  survivor count: 0 of 6
dose: 30.0 mg/kg/injection, schedule: Q01DX005 (ip), vehicle: saline with Tween-80
  survivor count: 0 of 6
dose: 60.0 mg/kg/injection, schedule: Q01DX005 (ip), vehicle: saline with Tween-80
  survivor count: 0 of 6
dose: 120.0 mg/kg/injection, schedule: Q01DX005 (ip), vehicle: saline with Tween-80
  survivor count: 0 of 6
[3]
  survivor count: 0 of 6

## Cc1ccc2c(c1)sc1nnc(S(C)(=O)=O)n12
[9]
  survivor count: 1 of 6

## Cn1c2ccccc2c2nnc(-n3nc(-c4ccc(Br)cc4)cc3N)nc21
[1]
  survivor count: 6 of 6
[2]
  survivor count: 6 of 6

## CC(=O)OCC1OC(n2cc(F)c(=O)[nH]c2=O)C(OC(C)=O)C1OC(C)=O (stereo not drawn)
dose: 3.12 mg/kg/injection, schedule: Q01DX009 (ip), vehicle: Klucel (hydroxypropylcellulose) (HPC)
  T/C: 134 % of control
dose: 6.25 mg/kg/injection, schedule: Q01DX009 (ip), vehicle: Klucel (hydroxypropylcellulose) (HPC)
  T/C: 142 % of control
dose: 12.5 mg/kg/injection, schedule: Q01DX009 (ip), vehicle: Klucel (hydroxypropylcellulose) (HPC)
  survivor count: 6 of 6
dose: 25.0 mg/kg/injection, schedule: Q01DX009 (ip), vehicle: Klucel (hydroxypropylcellulose) (HPC)
  survivor count: 6 of 6
[10]
  survivor count: 6 of 6
[9]
  survivor count: 6 of 6

## CCc1c(O)c(C(C)=O)c(S)[nH]c1=O
dose: 120.0 mg/kg/injection, schedule: Q01DX005 (ip), vehicle: Klucel (hydroxypropylcellulose) (HPC)
  survivor count: 6 of 6

## O=C(O)CC(CC(=O)c1ccccc1)c1ccccc1 (stereo not drawn)
[10]
  T/C: 127 % of control

## NC1=C(O)C(=O)C(c2ccccn2)O1 (stereo not drawn)
dose: 200.0 mg/kg/injection, schedule: Q01DX001 (ip), vehicle: other
  T/C: 125 % of control

## CC(C)CC(=O)CC(c1ccccc1)C(C(=O)/C=C/c1ccccc1)C(C)C (stereo not drawn)
[2]
  survivor count: 5 of 5
dose: 200.0 mg/kg/injection, schedule: Q01DX005 (ip), vehicle: saline with Tween-80
  survivor count: 5 of 5

## CCOC(=O)NOP(=O)(N1CC1(C)C)N1CC1(C)C (stereo not drawn)
dose: 62.5 mg/kg/injection, schedule: Q01DX001 (ip), vehicle: other
  T/C: 128 % of control
dose: 125.0 mg/kg/injection, schedule: Q01DX001 (ip), vehicle: other
  T/C: 140 % of control

## O=C1C2(Cl)C3CCC4C5CCC3C1(Cl)C5(Cl)C42Cl (stereo not drawn)
dose: 400.0 mg/kg/injection, schedule: Q04DX002 (ip), vehicle: saline with Tween-80
  survivor count: 3 of 6

## Nc1ccc2nc3ccccc3c(NCCCCCCCCNc3c4ccccc4nc4ccc(N)cc34)c2c1
dose: 10.0 mg/kg/injection, schedule: Q01DX009 (ip), vehicle: water
  T/C: 146 % of control
dose: 20.0 mg/kg/injection, schedule: Q01DX009 (ip), vehicle: water
  survivor count: 6 of 6
dose: 40.0 mg/kg/injection, schedule: Q01DX009 (ip), vehicle: water
  survivor count: 0 of 6

## COc1ccc(C2OC3=C(Nc4ccc(Cl)cc4N3)C2=O)cc1 (stereo not drawn)
dose: 60.0 mg/kg/injection, schedule: Q01DX005 (ip), vehicle: Klucel (hydroxypropylcellulose) (HPC)
  survivor count: 6 of 6

## CCCCCC(/C=C/C1C(O[Si](C)(C)C(C)(C)C)CC(N(C)C)C1(C/C=C/CCCC#N)S(=O)(=O)c1ccccc1)O[Si](C)(C)C(C)(C)C (stereo not drawn)
dose: 240.0 mg/kg/injection, schedule: Q01DX005 (ip), vehicle: Klucel (hydroxypropylcellulose) (HPC)
  survivor count: 6 of 6

## O=C(O)c1c2c(nc3ccccc13)CCCC2
dose: 200.0 mg/kg/injection, schedule: Q01DX005 (ip), vehicle: Klucel + Tween-80
  survivor count: 4 of 6

## CCOS(=O)(=O)CS(C)(=O)=O
dose: 50.0 mg/kg/injection, schedule: Q01DX005 (ip), vehicle: saline
  T/C: 133 % of control
dose: 200.0 mg/kg/injection, schedule: Q01DX005 (ip), vehicle: saline
  survivor count: 6 of 6

## CN(C#N)CCc1ccccc1
[8]
  survivor count: 3 of 6

## Cc1ccc(Cl)c(S(=O)(=O)F)c1
[7]
  survivor count: 3 of 6

## C#CCOC(=O)Nc1nc2ccc(C)cc2s1
[10]
  survivor count: 6 of 6
dose: 100.0 mg/kg/injection, schedule: Q01DX009 (ip), vehicle: Klucel (hydroxypropylcellulose) (HPC)
  survivor count: 5 of 6
[9]
  survivor count: 1 of 6
